# pEC50, pKd: −log10 of the molar value. Not every detail of the peptide structures is certain; ends, links or a residue may be inferred. For some assays here: At least one structure is not confirmed: it was looked up by name or label, or the drawing left a doubt. Where a SMILES comes first, the peptide text is derived from it.
# Experiments:
# [1] = biological target: T1, β-catenin (Homo sapiens, UniProt P35222); assay: KD50 measurement using competitive fluorescence polarization (FP) with labelled TCF4; type: binding
# T1 sequence (P35222 1-781): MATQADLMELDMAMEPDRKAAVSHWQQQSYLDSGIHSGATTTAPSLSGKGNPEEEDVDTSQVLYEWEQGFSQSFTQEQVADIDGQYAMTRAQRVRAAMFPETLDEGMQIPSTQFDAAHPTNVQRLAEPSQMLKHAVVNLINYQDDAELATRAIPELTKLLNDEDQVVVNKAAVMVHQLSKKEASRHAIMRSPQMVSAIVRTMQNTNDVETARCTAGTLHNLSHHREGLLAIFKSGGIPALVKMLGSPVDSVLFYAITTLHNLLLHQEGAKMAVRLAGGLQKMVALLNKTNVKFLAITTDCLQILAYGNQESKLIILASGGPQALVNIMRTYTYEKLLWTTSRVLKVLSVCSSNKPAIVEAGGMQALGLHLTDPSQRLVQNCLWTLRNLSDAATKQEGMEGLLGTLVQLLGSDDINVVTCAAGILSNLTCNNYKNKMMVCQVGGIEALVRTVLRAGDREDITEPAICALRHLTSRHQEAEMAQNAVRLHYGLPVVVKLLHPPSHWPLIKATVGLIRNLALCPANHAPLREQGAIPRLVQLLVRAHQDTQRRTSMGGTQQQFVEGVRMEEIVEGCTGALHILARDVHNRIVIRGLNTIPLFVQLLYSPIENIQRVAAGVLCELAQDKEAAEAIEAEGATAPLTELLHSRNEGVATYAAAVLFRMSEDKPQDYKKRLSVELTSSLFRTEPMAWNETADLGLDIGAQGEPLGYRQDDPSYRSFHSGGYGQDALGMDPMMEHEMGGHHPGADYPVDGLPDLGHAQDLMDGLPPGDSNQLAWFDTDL
# Text: Fluorescence polarization (FP) is another method used to analyze protein-ligand interactions. This methodology measures the change in fluorescence light emitted by a labelled compound free vs. conjugated to another compound in solution. Upon binding of the fluorescent molecule to a complex, polarization increases because of limited rotation of the fluorescent tracer. Competitive FP is often utilized in drug screens as it is formatted for high throughput screens in a plate format. This immunoassay is performed by introducing a non-conjugated drug to compete for binding to the labelled competitor-ligand complex, leading to a reduction in polarization. TCF4 protein is utilized for the competitive assay as (1) this protein influences the full activation of the Wnt pathway and (2) shares homology with the β-catenin inhibitors. Exemplary methodology is described in Example 13. Data were analyzed and plotted in Microsoft Excel (Microsoft, Redmond, WA).
# 5 nM of labelled TCF4 protein was added to solution of 100 nM of β-catenin and incubated at room temperature in 96-well plates (Greiner 96 Flat transparent plates, Millipore Sigma, Carlsbad CA). Varying concentrations of β-catenin inhibitor candidate (SEQ ID NO: 404) were then added in a series of serial dilutions from 10 nM to 30 uM of inhibitor in different wells of the plate. The fluorescence polarization was read by Infinite M1000 (Tecan, Baldwin Park CA) at excitation wavelength of 470 nm and measured at emission wavelength of 520 nm. […] The experiments were performed three times and data were analyzed and plotted in Microsoft Excel (Microsoft, Redmond, WA).
# [2] = biological target: Wnt-responsive promoter (TCF/LEF); assay: Wnt-dependent luciferase reporter assay; type: cell-based, murine
# Description: The luciferase reporter assay is commonly used as a tool to study gene expression at the transcriptional level. Peptides from libraries described herein were characterized for ability to suppress transcription in cells with luciferase expression controlled by a Wnt-responsive promoter. Peptides were added to cells transfected with luciferase gene downstream of a Wnt-responsive promoter. Cells were stimulated with Wnt3a protein and incubated with peptides from libraries described herein. Luminescence was recorded to determine the peptides with the highest β-catenin-inhibiting activity. EC50 values were calculated based on the inhibition of luminescence and expressed as concentration (uM) in Table 5.
# Peptides were assessed for their ability to inhibit Wnt signaling. Murine 3T3 fibroblasts that express luciferase under a Wnt-responsive promoter (TCF/LEF) (Enzo Life Sciences, Farmingdale, NY) were stimulated with Wnt3a in the presence of increasing concentrations of peptide inhibitor (Hit 1: SEQ ID NO:217, Hit 2: SEQ ID NO:224, Hit 3: SEQ ID NO:228, Hit 4: SEQ ID NO:227, Hit 5: SEQ ID NO:220, Hit 6: SEQ ID NO:168. Hit 7: SEQ ID NO:226) or with vehicle control (FIG. 2A).
Compound,pKd ([1]; read-out: β-Cat FP KD),β-Cat FP Hill slope [1],pEC50 [2]
CC[C@H](NC(=O)[C@@H](NC(=O)[C@H](CC(C)C)NC(=O)[C@H](CC1CCCCC1)NC(=O)[C@H](Cc1c[nH]c2ccccc12)NC(=O)[C@H](CCCCN)NC(=O)COCCOCCNC(=O)[C@H](CCCNC(=N)N)NC(=O)[C@H](CCCNC(=N)N)NC(=O)[C@H](CCCNC(=N)N)NC(=O)[C@H](CCC(N)=O)NC(=O)[C@H](CCCNC(=N)N)NC(=O)[C@H](CCCNC(=N)N)NC(=O)[C@H](CCCCN)NC(=O)[C@H](CCCCN)NC(=O)[C@@H](N)CCCNC(=N)N)[C@@H](C)CC)C(=O)N[C@@H](C)C(=O)N[C@@H](Cc1c[nH]c2ccccc12)C(=O)N[C@@H](CC(=O)O)C(=O)O [282/493] (HELM PEPTIDE1{R.K.K.R.R.Q.R.R.R.[O=C(COCCOCCN[*:1])[*:2]].K.W.[Cha].L.I.[Abu].A.W.D}$$$$V2.0),> 6.40,–,–
"CCCCCCCCCCCC(=O)N[C@@H](Cc1c[nH]c2ccccc12)C(=O)N(C)[C@@H](C)C(=O)N[C@@H](CCC(N)=O)C(=O)N[C@H]1CCCCNC(=O)C[C@@H](C(=O)N[C@@H](Cc2c[nH]cn2)C(=O)N[C@H](C(=O)N[C@@H](CCC(N)=O)C(=O)N[C@@H](C)C(=O)N[C@H](C(N)=O)C(C)C)C2CCCCC2)NC(=O)[C@H](CC(N)=O)NC(=O)[C@H](CC(C)C)NC(=O)[C@H]([C@@H](C)CC)NC1=O [compound 453] (HELM PEPTIDE1{[CCCCCCCCCCCC(=O)[*:2]].W.[meA].Q.K.I.L.N.D.H.[O=C([C@@H](N[*:1])C1CCCCC1)[*:2]].Q.A.V.[am]}$PEPTIDE1,PEPTIDE1,5:R3-9:R3$$$V2.0)",–,0.7,> 5.12
"CCCCCCCCCCCCCCCC(=O)N[C@@H](Cc1c[nH]c2ccccc12)C(=O)N(C)[C@@H](C)C(=O)N[C@@H](CCC(N)=O)C(=O)N[C@H]1CCCCNC(=O)C[C@@H](C(=O)N[C@@H](Cc2c[nH]cn2)C(=O)N[C@H](C(=O)N[C@@H](CCC(N)=O)C(=O)N[C@@H](C)C(=O)N[C@H](C(N)=O)C(C)C)C2CCCCC2)NC(=O)[C@H](CC(N)=O)NC(=O)[C@H](CC(C)C)NC(=O)[C@H]([C@@H](C)CC)NC1=O [compound 454] (HELM PEPTIDE1{[CCCCCCCCCCCCCCCC(=O)[*:2]].W.[meA].Q.K.I.L.N.D.H.[O=C([C@@H](N[*:1])C1CCCCC1)[*:2]].Q.A.V.[am]}$PEPTIDE1,PEPTIDE1,5:R3-9:R3$$$V2.0)",–,0.7,> 5.12
